# The campaign covered roughly 320,000 compounds. About 2,100 (0.66%) were called active. The shares of active, inactive and inconclusive entries below differ from those in the screen. Calls follow the shape of the dose curve; as a rule, active = well fitted inhibition curve with a large enough effect in the signal ratio, with a control signal flat (not every such curve was filed as active); inconclusive = small, poorly fitted or top-dose-only effect, or effect the other way, or a change in a side signal; inactive = flat fitted curve, though single readings scatter; the % refers to the signal ratio. Potencies of inconclusive entries are doubtful fits and often do not repeat.
# Assay: qHTS Assay for Lipid Storage Modulators in Drosophila S3 Cells
# Conditions: BODIPY lipid droplet fluorescence, 18-24 h, cells fed with added oleic acid; lipid storage change, negative = inhibition: at 46.1 µM (top of the series) unless noted
# Summary of the method: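 Laser-scanning cytometry quantifies lipid droplet accumulation (500–530 nm total intensity; droplet/cell object ratio) in oleic acid-fed (400 uM added) Drosophila S3 cells treated with a concentration series. 20 uM Triacsin C defined 100% inhibition.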
# % is scaled to controls: 0 for no effect and ±100 for the full control effect; potency is read from the fitted curve at half-maximal effect.
SMILES,"lipid storage change, negative = inhibition",Potency
Cc1cccc(N2CCN(C(=O)CCC(=O)N3CC(C)Oc4ccc(C)cc43)CC2C)c1 (configuration not stated),inconclusive: -64.6%,–
CCN1C(=O)c2cccc3c(S(=O)(=O)Nc4ccccc4)ccc1c23,–,"inconclusive: 0.184 µM [falling, full curve, poor fit]"
CN(c1ccc(OCC(=O)Nc2nc3ccccc3s2)cc1)S(=O)(=O)c1ccccc1,–,"inconclusive: 18.4 µM [falling, single point]"
Cc1ccc(-c2nnn(CC(=O)N(CC(=O)NC3CCCC3)c3ccc(F)cc3)n2)o1,inconclusive: 30.5%,–
O=C(Nc1cc(Cl)cc(Cl)c1)C(c1ccccc1)N1CCCCC1 (configuration not stated),–,"inconclusive: 2.59 µM [rising, single point]"
Cc1cc(-n2c(C)cc(C(=O)CCl)c2C)no1,inconclusive: -55.2%,–
CCCn1nc(C(=O)NCC2COc3ccccc3O2)c2ccccc2c1=O (configuration not stated),inconclusive: 4.27%,–
Cc1ccc(S(=O)(=O)N2CCOCC2)cc1C(=O)OCC(=O)NC1CCCCC1,inconclusive,–
NC(=O)C1CCN(CC(O)CSc2ccccc2)CC1 (configuration not stated),inactive: 22.1%,–
CCC(=O)N(Cc1cc(=O)[nH]c2ccccc12)c1ccccc1C,inconclusive: 0.94%,–
CCOC(=O)c1c(C)[nH]c(C)c1S(=O)(=O)NCC1CCN(Cc2cccc(Cl)c2)CC1,inconclusive: 42.9%,–
CCC(C)NC(=O)CSc1ccc(NC(C)=O)cc1 (configuration not stated),–,"inconclusive: 0.13 µM [falling, full curve, poor fit]"
CC(C)CCNC(=O)C1CCN(C(=O)N(C)C)CC1,inconclusive: -31.4%,–
C=C(C)CNC(=S)N1CCNC(=O)C1CC(=O)OC (configuration not stated),–,"inconclusive: 0.231 µM [falling, full curve, poor fit]"
Cc1nc(N2CCN(C)CC2)c2c(C)c(C(=O)Nc3ccc(C)c(F)c3)sc2n1,inconclusive: 314%,–
CCOc1ccc(C2=CC(=O)C[C@H](c3ccc(OC)cc3)C2)cc1,inconclusive: -1.75%,–
CCOC(=O)c1c(C)[nH]c(C(=O)COC(=O)C(C)Oc2ccc(Cl)cc2Cl)c1C (configuration not stated),inconclusive: 14%,–
CC1(C)Cc2c(c(=S)nc(-c3ccccc3)n2CCOCCO)CO1,inactive: 0.774%,–
O=P(O)(CCc1ccncc1)CN1CCCCC1,inconclusive: -7.43%,–
COc1cccc(N(C(=O)c2ccco2)C(C(=O)NC2CCCC2)c2ccc(N(C)C)cc2)c1 (configuration not stated),inconclusive: 16.2%,–
CCCC(=O)N(Cc1cc(=O)[nH]c2ccccc12)c1ccccc1,–,"inconclusive: 6.51 µM [falling, single point]"
Cc1[nH]c2ccccc2c(=O)c1CN(C)Cc1ccccc1,inconclusive: -4.15%,–
CCN(Cc1ccccc1)C(=O)C1CCN(C(=O)Nc2ccccc2)CC1,inconclusive: -45.6%,–
O=C(CN1CCN(Cc2ccc(Cl)cc2)CC1)N/N=C/c1cccc(F)c1,inconclusive: 10.5%,–
NC(=O)c1nc(-c2ccco2)nc2c1[nH]c(=O)n2-c1ccc(Cl)c(Cl)c1,inconclusive: 45.8%,–
CC(=O)Nc1cccc(C(=O)NC(C)c2ccc(S(N)(=O)=O)cc2)c1 (configuration not stated),–,active: 1.64 µM

# Full records from above.
# COc1cccc(N(C(=O)c2ccco2)C(C(=O)NC2CCCC2)c2ccc(N(C)C)cc2)c1 (configuration not stated) in the list: lipid storage change, negative = inhibition: inconclusive: 16.2%
# CCN1C(=O)c2cccc3c(S(=O)(=O)Nc4ccccc4)ccc1c23 in the list: Potency: inconclusive: 0.184 µM [falling, full curve, poor fit]
# CC(C)CCNC(=O)C1CCN(C(=O)N(C)C)CC1 in the list: lipid storage change, negative = inhibition: inconclusive: -31.4%

# The results go on.

SMILES,"lipid storage change, negative = inhibition",Potency
O=C(Nc1ccc2nccnc2c1)c1cnccn1,–,"inconclusive: 2.31 µM [falling, single point]"
Cc1ccc(-n2c(SCC(N)=O)nnc2-c2ccccn2)cc1,–,"inconclusive: 0.259 µM [falling, full curve]"
O=C(c1ccco1)N1CCN(Cc2ccc(F)cc2)CC1,inconclusive: 25%,–
COC(=O)c1cc[n+](CC(=O)c2ccccc2)cc1,inconclusive: -164%,–
CN1C2CCC1CC(NC(=O)c1cc(Cl)cc3[nH]cnc13)C2 (configuration not stated),–,"inconclusive: 18.4 µM [activator, single point]"
Cc1cccc(C2Nc3ccccc3C(=O)N2CCc2ccccc2)n1 (configuration not stated),inconclusive: 24.3%,–
COc1cccc(-c2noc(-c3cccs3)n2)c1,inconclusive: 22.7%,–
Cc1[nH]nc(N)c1-c1ccc(Cl)cc1,inconclusive: -17.5%,–
Cc1ccc(NC(=O)CN2C(=O)NC3(CCCC3)C2=O)c(Cl)c1,–,"inconclusive: 25.9 µM [activator, single point]"
CN1CCN(c2ccc(NC(=O)c3cc([N+](=O)[O-])ccc3N3CCOCC3)cc2)CC1,–,"inconclusive: 29.1 µM [activator, partial curve]"
CCOc1cccc(C(=O)N2CCCN(C)CC2)c1,inconclusive: -0.39%,–
C=C1CCC[C@]2(C)C[C@H]3OC(=O)C(CN4CCOCC4)[C@H]3C[C@@H]12 (some centres not stated),–,active: 8.2 µM
COc1ccc(NS(=O)(=O)c2ccc(N3CCCC3)c(NC(=S)Nc3cccc(C)c3C)c2)cc1,inconclusive: -14.3%,–
O=C1NCCc2c1[nH]c1c(Cl)ccc(Cl)c21,inconclusive: 28.1%,–
Cc1ccc(S(=O)(=O)N2CCN(C(=O)CCOc3cc(C)ccc3C)CC2)cc1,–,"inconclusive: 23.1 µM [falling, single point]"
COc1cccc(C(=O)N2CCN(C3CCC(c4ccccc4)CC3)CC2)c1 (configuration not stated),inconclusive: 91%,–
CCC(=O)Nc1cc(-c2cc3ccccc3oc2=O)ccc1OC,–,"inconclusive: 23.1 µM [rising, single point]"
O=C(Nc1nc2ccccc2s1)c1cccc(N2C(=O)CCC2=O)c1,inconclusive: -5.42%,–
CC1(c2ccccc2)NC(=O)N(CC(=O)Nc2ccc(C(N)=O)cc2)C1=O (configuration not stated),inconclusive: 177%,–
N#CC1=C2N=C(N)c3ccccc3N2C2=C(C(=O)CCC2)C1c1cccc(Cl)c1 (configuration not stated),inconclusive: 21%,–
O=C(NC1CC1)c1ccc(N2CCCCC2)c([N+](=O)[O-])c1,inconclusive: -42.1%,–
CCOc1nc(Oc2cccc(C(=O)O)c2)nc(Oc2cccc(C(=O)O)c2)n1,–,"inconclusive: 0.731 µM [activator, full curve]"
CCc1cccc(CC)c1NC(=S)Nc1ccc2cn[nH]c2c1,–,"inconclusive: 16.4 µM [activator, single point]"
CCc1ccc(N2CC(O)(c3cccs3)[N+]3=C2SCCC3)cc1 (configuration not stated),inconclusive: 40.7%,–
CS(=O)(=O)c1ccc(NS(=O)(=O)c2ccc(Cl)c(C(=O)NCc3ccco3)c2)cc1,inconclusive: 10.3%,–
Nc1[nH]nc2ncc3cc4ccccc4nc3c12,–,"inconclusive: 1.3 µM [cytotoxic, full curve]"

SMILES,"lipid storage change, negative = inhibition",Potency
Cc1nc2sccc2c(=O)n1-c1cccc(Cl)c1,inconclusive: -10.8%,–
COc1ccc(-c2ccc(-c3nnn(CC(C)=O)n3)cc2)cc1,–,"inconclusive: 2.91 µM [activator, single point]"
CCn1c(SCC(=O)Nc2ccc(OC)cc2)nc2nc3c(cc2c1=O)CCCC3,inconclusive: 35.3%,–
CC1CCCC(C)N1C(=O)Cn1cc(/C=C2/C(=O)Nc3ccccc32)c2ccccc21 (configuration not stated),–,active: 23.1 µM
CCOC(=O)c1ccc(N2C(=O)CC(N3CCC(C(=O)OCC)CC3)C2=O)cc1 (configuration not stated),inconclusive: -24.3%,–
C=CCn1c(C)c(C(C)=O)c(SC)nc1=S,inconclusive: -5.79%,–
CC(OC(=O)CSc1ccc([N+](=O)[O-])cc1)C(=O)NC1CC1 (configuration not stated),–,"inconclusive: 14.6 µM [falling, single point]"
COc1ccc(-n2cnc3cc(NC(=O)c4ccco4)ccc32)cc1,–,"inconclusive: 3.26 µM [activator, partial curve]"
O=C(CCNS(=O)(=O)c1ccccc1)OCC(=O)c1ccc[nH]1,inconclusive: 3.15%,–
COc1ccc(C(C)=O)cc1CC(=O)NC1CCCCCC1,inconclusive: -44.1%,–
CCCCc1ccc(S(=O)(=O)N/N=C(/C)c2ccncc2)cc1,–,"inconclusive: 23.1 µM [falling, single point]"
COc1cccc(CNS(=O)(=O)c2cccc(S(=O)(=O)N3CCOCC3)c2)c1,–,"inconclusive: 29.1 µM [rising, partial curve, poor fit]"
Cc1cc(NS(=O)(=O)c2ccccc2)c(C)c(Cl)c1O,inconclusive: 20.1%,–
Cc1ccnc(Nc2nc(-c3c(C)nc4sccn34)cs2)c1,–,"inconclusive: 29.1 µM [activator, partial curve, poor fit]"
Cc1cccc(-c2noc(C(C)NC(=O)c3ccco3)n2)c1 (configuration not stated),–,"inconclusive: 0.184 µM [activator, single point]"
CCCCOc1ccc(/C=C/C(=O)N(CC)CC(=O)Nc2ccc3c(c2)OCCO3)cc1OC,inconclusive,–
COc1ccc(-c2cc(C(=O)NC(C(=O)O)C(C)C)c(C)o2)cc1OC (configuration not stated),–,"inconclusive: 6.51 µM [activator, partial curve, poor fit]"
CC(C)CN(C(=O)COC(=O)c1ccc2c(c1)OCO2)c1c(N)n(Cc2ccccc2)c(=O)[nH]c1=O,inconclusive: 4.02%,–
COc1ccc(C)cc1S(=O)(=O)N1CCN(C(=O)c2ncoc2-c2ccccc2F)CC1,–,"inconclusive: 29.1 µM [falling, single point]"
COC(=O)c1ccccc1NC(=S)NC(=O)c1ccccc1C,inconclusive: 15.9%,–
CN1C=CC(=CC=C2C=CC(=O)C=C2)C=C1,inconclusive: -12.4%,–
CCCn1c(SCC(=O)NCc2ccco2)nnc1C(C)C,inconclusive: -28.1%,–
O=C(CSc1nnc(NC(=O)C2CC2)s1)NCc1ccc(F)cc1,inconclusive: -7.17%,–
CCOC(=O)N1CCN(c2nc(C)c3c(n2)CC(C)CC3=O)CC1 (configuration not stated),–,"inconclusive: 6.51 µM [rising, single point]"
Cc1ccc(Cl)cc1NC(C#N)c1ccccc1 (configuration not stated),inconclusive: -7.99%,–

# Reformatted with tabs: entries from further up.
SMILES	lipid storage change, negative = inhibition	Potency
C=C1CCC[C@]2(C)C[C@H]3OC(=O)C(CN4CCOCC4)[C@H]3C[C@@H]12 (some centres not stated)	–	active: 8.2 µM
COc1ccc(NS(=O)(=O)c2ccc(N3CCCC3)c(NC(=S)Nc3cccc(C)c3C)c2)cc1	inconclusive: -14.3%	–
O=C1NCCc2c1[nH]c1c(Cl)ccc(Cl)c21	inconclusive: 28.1%	–

# Source: PubChem BioAssay AID2685 (National Center for Advancing Translational Sciences (NCATS), 2010)
